Assay results: publication PMC8691648, “Heterophilic and homophilic cadherin interactions in intestinal intermicrovillar links are species dependent” (PLoS Biology, 2021)
These are yes or no findings as the source states them, for the method shown.

Target: mm PCDH24 EC1-MAD10Fc (mouse) (UniProt E9Q7P9)
Assay: bead aggregation assay; homophilic; Protein G Dynabeads coated with one Fc fusion captured from concentrated serum-free medium and washed; 50 mM Tris pH 7.5, 100 mM NaCl, 10 mM KCl, 0.2% BSA, 2 mM CaCl2; 60 min on a depression slide, then rocking 1 to 2 min; both purified

B1: mm PCDH24 EC1-MAD10Fc (Fc fusion, UniProt E9Q7P9 21-1152)
chain: NSPPSFGVNMTLVTLPEDLPVGAVAFWLVATDSDNDHLTYGISGPNASYFSVNANTGEVKLASPLDFETVPFFKITISTSDGLNIRTAEMQVIVEDRNDNIPVFLNTEFSTSINETLPVGSVVFSVLAEDKDTGTAGLVQYFIEKVIPSTANSNNLFRILENGSIVLNDTLSYNNKSAFYQLELKACDSGGILDNKPKTQCSQPVFVSISVIDEPDLDPRFIREFYSASVAEDATLGTSVLTVEAVDSDKGINDIVTYSVSNSTRPGWFDIREDGVIFVNGSLDREQLLLENEEVQIQVTATEKNLNIYGQEAKASMWVTIRVTDVNDHKPEFYNCSLPGCSFSPQEAQVNFIGYVDEHASARISIDGLTMVAYDPDQGDNGTFLLSLNGQDAEAFNVSPERAAGSVSVQVVVRNSEMVDYEKETVMVVEVVATDSVSNNYSVATVTIHLRNINDHRPVFSQSLYELTVPEHCPTGYLVTDKIQATDLDGDEWGPITYSLLPGNGADLFEVEPNSGNLTVKNGTLLDREKQAVYYLTLQATDGGNQSTTTALEITLLDINDNPPVVRGSYNVFVPEENGNVSVTIQAYDDDQPDTNNSLLVFSLLPGPYSSNFSLDPNTGLLRNLGPLDREAIDPALEGRIVLTVIVADCGEPSLSTNVNVTITVEDINDNLPVFNQSYEFSVWERVPGAWVGTVKAWDADQTAANNRISFSLSGTGANNFILQGNVLEQGWAEGSLWLLPDVRLDYETQKFFHLTVSAENPGPQGLDSTANVTVTVMDVNDEPPTLDAASLQAISVTENGSEHGQVTRVIAQDVDTAALLRIELVDVICTKAGVDVGSVCHGWFSVDGNGSVYINQSEAIDYEACHLVTLVVRAYDLNTDPGFDAYSSNGSLLINIKDKNDNAPYFLPNNQTFVIIPELVLPNQQVASVQARDEDSEDNGIIMFSILKAEFVRKDGTSNPVQVFRITRSVEAGLFTGSIELVTNLDSTIQGTYQVTVQAQDQPTLGPALETQTTLNLFTVDQSYRVRLQFSTSKEDVGANMEEIKEALIQATRTSVYVVTIQNIDSTARARASSYMDAYFVFSNGTALTLTELNMMIRKDQDALRQLLQLGLVVVSSQESQEPDQQKLLTSTVPRARDPPV
- binding: no binding
